The values below come from publication PMC4649506.

By UniProt entry, the sequences of proteins in these tests, tags left out. Residues count along the entry.
UniProt P43403: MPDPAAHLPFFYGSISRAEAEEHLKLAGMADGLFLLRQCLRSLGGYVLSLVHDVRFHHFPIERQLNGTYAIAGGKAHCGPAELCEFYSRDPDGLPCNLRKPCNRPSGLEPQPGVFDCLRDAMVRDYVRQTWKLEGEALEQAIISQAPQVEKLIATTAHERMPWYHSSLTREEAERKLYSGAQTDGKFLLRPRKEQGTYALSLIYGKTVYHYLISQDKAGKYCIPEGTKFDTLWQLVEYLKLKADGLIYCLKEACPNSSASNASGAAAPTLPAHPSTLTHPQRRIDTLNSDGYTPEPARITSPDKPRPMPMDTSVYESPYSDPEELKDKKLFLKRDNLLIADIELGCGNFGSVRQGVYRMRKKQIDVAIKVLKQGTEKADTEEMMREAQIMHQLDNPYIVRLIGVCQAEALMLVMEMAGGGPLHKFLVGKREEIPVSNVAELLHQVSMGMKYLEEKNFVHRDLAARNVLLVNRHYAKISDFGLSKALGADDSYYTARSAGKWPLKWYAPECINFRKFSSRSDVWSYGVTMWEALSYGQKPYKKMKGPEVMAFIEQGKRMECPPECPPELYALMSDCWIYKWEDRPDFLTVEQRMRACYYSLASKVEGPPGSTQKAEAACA
UniProt P11912, residues 33-226: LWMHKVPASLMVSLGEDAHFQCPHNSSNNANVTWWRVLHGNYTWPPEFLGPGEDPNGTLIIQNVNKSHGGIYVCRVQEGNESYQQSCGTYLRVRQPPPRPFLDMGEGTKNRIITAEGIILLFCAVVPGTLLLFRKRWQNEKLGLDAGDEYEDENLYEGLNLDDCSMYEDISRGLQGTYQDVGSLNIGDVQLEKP

Results are given in words; binding and its absence hold for the method and conditions named. In cells and extracts the contact can be indirect. Some binding calls cover weakened binding; strength is not graded here.

For this assay, the target named is zeta-chain-associated protein 70 (ZAP-70) (UniProt P43403). The experiment in a line: co-IP; 500 ug protein of Raji-ZAP-70 lysate in 0.2% CHAPS lysis buffer (150 mM NaCl, 20 mM Tris, 10% glycerol, 2 mM EDTA, orthovanadate), mouse anti-Syk or mouse anti-ZAP-70 overnight at 4 °C, protein G plus agarose; cells treated with DMSO or 20 uM gefitinib for 24 h.

As to “CD79a (from UniProt P11912 33-226) (receptor)”, the binding result is listed as “binds”.
